The exact form of at least one protein or probe is not confirmed.
Key:
[1] = system: thrombin (coagulation factor II, in plasma) (Mus musculus); test: inhibition of the protein; settings: 2'-F modified NTPs (fluoro-modified transcription; modified bases not specified); prolongs aPTT and PT clotting in murine plasma, increases blood loss in mouse liver laceration at 1 and 3 mg/kg; 2211a or 2211b not specified; protein in an extract; protein details: endogenous in murine plasma
[2] = system: thrombin (coagulation factor II, in pooled plasma) (Homo sapiens); test: inhibition of the protein; settings: 2'-F modified NTPs (fluoro-modified transcription; modified bases not specified); prolongs aPTT and PT clotting in human plasma; text does not say whether 2211a (SEQ 16) or 2211b (SEQ 17) was used; indirect evidence of binding; protein in an extract; dose not given here

Sequence: GGGAGAUCGAGCGACUUCCGACUCUGGCGGUCGAUCACACAGUUCAAACGUAAUAAGCCAAUGUACGAGGCAGACGACUCGCCAGAGUCGGGAGUCGGGCUAGUCAUCAGGCACGGGAACAAAGCUGAAGUACUUACCCGUGCCUGAUGAUUAGCCGCUGGUGAAGCCUCCACGCCAGCCUCGGUCUCCCGAUCUAGGAUCGGACUGAAGGAGGCACGGUCCCAGCCGAAGUGUCUUGCGGGAACAAAGCUGAAGUACUUACCCGCAAGGCACUUUGGCUGCUAGACUGGCUGGCGGCGGUCGAUCACACAGUUCAAACGUAAUAAGCCAAUGUACGAGGCAGACGACUCGCCGCCAGCUAGUUUAGGAUUCUAGAUC
- functional effect of the aptamer [1]: active
- functional effect of the aptamer [2]: active

Source: patent US20240309385
